{
  "source": "patent US20080306047A1",
  "about": "“Use of Aza-Phenylalanine Compounds For Treating Cardiac Arrhythmia” (priority 2005, published 2008)",
  "test_system": "isolated rat hearts",
  "assay": "Reperfusion-induced arrhythmia in isolated rat hearts (Langendorff), 25-min global no-flow ischemia, 30 min reperfusion",
  "design": "species or system Wistar rats",
  "settings": "0.5 μM (+DMSO 500 μL/L), compared to DMSO group, n=12",
  "protocol": "Hearts from male Wistar rats (300-370 g) anesthetized with diethyl-ether inhalation were perfused with Krebs-Henseleit buffer at 37° C. gassed with carbogen in Langendorff mode as described (Onody A et al., Cardiovasc Res. 2003, 58: 663-670). After an initial 15 min aerobic, normothermic perfusion period, hearts are subjected to 25-min of global, no-flow, normothermic ischemia, followed by 30 min normoxic, normothermic reperfusion. Measured parameters were heart rate and incidence of reperfusion-induced ventricular fibrillation (VF) and ventricular tachycardia (VT). Epicardial electrocardiogram was recorded throughout the experimental protocol to determine heart rate, VF and VT according to the Lambeth conventions (Walker et al., Cardiovasc Res. 1988; 22: 447-455) as described (Csonka et al., 2003; J Cardiovasc Pharmacol 41: 916-922; Ferdinandy et al., Cardiovasc Res. 1995; 58: 663-670.). Recording and evaluation of the ECG was performed using the SPEL Advanced Isosys system (Experimetria Ltd, Budapest, Hungary). Experimental groups were designed as follows: control, solvent (DMSO 500 μL/L), compound of formula IV at 1 μM (+DMSO 500 μL/L), compound of formula IV at 10 μM (+DMSO 500 μL/L), positive control: nifedipine at 0.5 μM (+DMSO 500 μL/L). […]",
  "note": "At least one compound was matched to its structure with a doubt left.",
  "data": [
    {"molecule": "COC(=O)C1=C(C)NC(C)=C(C(=O)OC)C1c1ccccc1[N+](=O)[O-]", "note": "[nifedipine, reference compound]", "values": [
      {"measurement": "incidence of reperfusion-induced ventricular fibrillation (VF)", "value": "significantly decreased"},
      {"measurement": "incidence of reperfusion-induced ventricular tachycardia (VT)", "value": "significantly decreased"}
    ]}
  ]
}
